Test results published in patent US9914750B2, “Synthetic peptides and peptide mimetics” (University of Louisville Research Foundation, priority 2007, dated 2018).
Values joined by “and” are separate entries in the source; they are usually repeats but may differ in a detail not shown here. Equal entries are not always repeated. “Also recorded” adds a separate entry of the source. Not every detail of the peptide structures is certain; ends, links or a residue may be inferred. No end group written: not given here.

Key:
P. aeruginosa [1] = assay: Elimination of pre-formed biofilm, PVC microtiter plates; assay type: cell-based, Pseudomonas aeruginosa; settings: biofilm formed 4 h or 6 h, then peptide 50 μg/ml for 2 h
S. gordonii [2] = assay: Bacterial agglutination visualized in polystyrene plates, crystal violet; assay type: cell-based, Streptococcus gordonii; settings: 100 μg/ml, 30 min
P. aeruginosa PAO1 [3] = assay: Biofilm formation / bacterial adhesion assay, PVC microtiter plates, crystal violet; assay type: cell-based, Pseudomonas aeruginosa; settings: 50 μg/ml, 6 h
Description: FIGS. 7A and 7B: PSP-peptides inhibit biofilm formation. P. aeruginosa PAO1 (overnight cultures, diluted 1:100 were incubated with 50 μg/ml of each peptide (LL37, GK7, GL13, KL11) or lysozyme for 6 h under aerobic (FIG. 7A) or reduced oxygen (anaerobic) (FIG. 7B) conditions. The OD 570 (growth) was determined and the attached cells were then quantitated by staining with crystal violet (biofilm). Growth and biofilm values were normalized against the mean of samples without peptides (HOAc) and expressed as mean±SEM. The data in panel A are from three independent experiments, N=22−24. The data in panel B are from two independent experiments, N=16. Lysozyme (Lyz) data are from a single experiment, N=8. *) different from Growth, P<0.002
(§1) Overnight cultures of P. aeruginosa PAO1 were diluted 1:100 in MHB and 100 μl/well were incubated with 5 μl of LL-37, GK-7, GL-13, KL-11 or lysozyme (1 mg/ml) in PVC microtiter plates. The plates were incubated for 6 h at 32° C. under aerobic or reduced oxygen conditions. Bacterial growth was quantitated spectrophotometrically at 570 nm. Twenty-five μl of 1% crystal violet in dH2O was added to each well and incubated 20 min at room temperature. The wells were emptied and washed three times in dH2O and then incubated for 30 min with 200 μl of 95% ethanol. The OD at 570 nm was determined as a measure of biofilm formation. Growth and biofilm values were normalized against the mean of samples incubated with 0.01% acetic acid without peptides.
as §1, with “μl of the bacterial suspension was mixed” for “μl/well were incubated”, “50 μg/ml” for “5 μl”, “lysozyme” for “lysozyme (1 mg/ml)”

S. gordonii [4] = assay: MIC determination, broth dilution assay (growth, pelleting in wells); assay type: cell-based, Streptococcus gordonii
[5] = test system: RAW 264.7 macrophage cells; assay: Phorbol ester-stimulated TNFα secretion (ELISA); assay type: cell-based, mouse; settings: 100 nM Phorbol 12,13 didecanoate, 200 μg/ml peptide
P. aeruginosa PAO1 [6] = assay: MIC determination, broth dilution assay (growth OD 570 nm, pelleting in wells); assay type: cell-based, Pseudomonas aeruginosa
Description: FIGS. 5A and 5B: PSP peptides lack bacteriostatic activity. P. aeruginosa PAO1 or A. actinomycetemcomitans JP2 (10^5 cells/ml) were incubated overnight with two-fold serial dilutions of the indicated peptides. The OD was determined at 570 nm. The data for P. aeruginosa (FIG. 5A) are representative of six independent experiments. The data for A. actinomycetemcomitans (FIG. 5B) are representative of three independent experiments. Filled squares, lysozyme; open diamonds, no peptide; open triangles, KL-11; filled triangles, GK-7; open squares, GL-13; filled diamonds, LL-37. […] Lysozyme inhibits growth about 50%. None of the PSP peptides inhibit growth.
FIG. 6A-6C: GL13 causes bacterial cell spreading. Microtiter plates used to determine bacteriostatic activity (FIG. 5) were photographed after overnight incubation with serial dilutions of the indicated peptides. The diameter of the P. aeruginosa pellets in the presence of GL13 was determined and expressed relative to the peptide concentration in each well. A. Graph of the results. B and C are representative depictions of P. aeruginosa and A. actinomycetemcomitans, respectively, spreading in the presence of PSP peptides.
The minimal inhibitory concentration (MIC) of PSP peptides was tested using the broth dilution assay. […] Bacterial growth was quantitated by the optical density (OD) at 570 nm. […]

P. aeruginosa [7] = assay: Bacterial agglutination visualized in polystyrene plates, crystal violet; assay type: cell-based, Pseudomonas aeruginosa; settings: 100 μg/ml, 30 min
P. aeruginosa PAO1 [8] = assay: Time course of bacterial agglutination (OD 675 nm); assay type: cell-based, Pseudomonas aeruginosa; settings: for agglutination in the presence of 0.25% Tween 20 (words): 2 h

## GQIINLKASLDLL-NH2 [GL13-NH2, GQIINLKASLDLL-(CONH2)]
P. aeruginosa [1]
  elimination of pre-formed biofilm: cannot eliminate biofilm once it is formed
S. gordonii [2]; listed as GL-13
  agglutination of S. gordonii (words): causes agglutination
S. gordonii [2]; listed as GL-13-NH2
  agglutination of S. gordonii (words): Agglutination was observed
P. aeruginosa PAO1 [3]; aerobic
  bacterial growth in biofilm/adhesion assay: only a small (non-significant) reduction of bacterial growth
  biofilm formation / adhesion: inhibits P. aeruginosa biofilm formation
  inhibition of biofilm formation (adhesion): 60%
P. aeruginosa PAO1 [3]; reduced oxygen conditions
  biofilm formation: reduced biofilm formation under low oxygen conditions
S. gordonii [4]
  appearance of bacterial pellet in MIC plates (words): caused matting of the bacteria
[5]
  phorbol ester-stimulated TNFα secretion: inhibited the phorbol ester stimulated release of TNFα; also recorded: strongly inhibits the phorbol ester-stimulated secretion of TNFα
P. aeruginosa PAO1 [6]; listed as GL13
  appearance of bacterial pellet in MIC plates (words): diffuse pellet
P. aeruginosa PAO1 [6]; listed as GL-13-NH2
  appearance of bacterial pellet in MIC plates (words): caused matting of the bacteria
P. aeruginosa [7]; listed as GL-13
  agglutination of P. aeruginosa (words): causes agglutination
P. aeruginosa [7]; listed as GL-13-NH2
  agglutination of P. aeruginosa (words): Agglutination was observed
P. aeruginosa PAO1 [8]; 50 μg/ml
  agglutination: 50%
P. aeruginosa PAO1 [8]; 100 μg/ml
  agglutination kinetics with 70 μM EDTA, 1 mM CaCl2, 250 mM NaCl or 250 mM glucose: not significantly altered; also recorded: does not depend on divalent cations
P. aeruginosa PAO1 [8]; 100 μg/ml, listed as GL-13
  agglutination in the presence of 0.25% Tween 20 (words): Tween-20 significantly limited the GL-13 induced agglutination
P. aeruginosa PAO1 [8]; 100 μg/ml, listed as GL-13-NH2
  agglutination in the presence of 0.25% Tween 20 (words): partially inhibited by the non-ionic detergent Tween-20
P. aeruginosa PAO1 [8]; 100 μg/ml, room temperature
  time to (essentially) complete agglutination: 20 min and 30 min
P. aeruginosa PAO1 [8]; decrease in optical density of bacterial suspension
  agglutination of P. aeruginosa (words): caused substantial agglutination
